No constants are given. Whether binding was seen depends on the method and setting. Some binding calls cover weakened binding; strength is not graded here. Sequences can lack the tags named with a protein.
What was measured:
[1] = target: T1, p110^RB, the hypophosphorylated form of retinoblastoma protein (Rb) (UniProt P06400); assay: GST pull-down, anti-Rb blot
T1 sequence (looked up): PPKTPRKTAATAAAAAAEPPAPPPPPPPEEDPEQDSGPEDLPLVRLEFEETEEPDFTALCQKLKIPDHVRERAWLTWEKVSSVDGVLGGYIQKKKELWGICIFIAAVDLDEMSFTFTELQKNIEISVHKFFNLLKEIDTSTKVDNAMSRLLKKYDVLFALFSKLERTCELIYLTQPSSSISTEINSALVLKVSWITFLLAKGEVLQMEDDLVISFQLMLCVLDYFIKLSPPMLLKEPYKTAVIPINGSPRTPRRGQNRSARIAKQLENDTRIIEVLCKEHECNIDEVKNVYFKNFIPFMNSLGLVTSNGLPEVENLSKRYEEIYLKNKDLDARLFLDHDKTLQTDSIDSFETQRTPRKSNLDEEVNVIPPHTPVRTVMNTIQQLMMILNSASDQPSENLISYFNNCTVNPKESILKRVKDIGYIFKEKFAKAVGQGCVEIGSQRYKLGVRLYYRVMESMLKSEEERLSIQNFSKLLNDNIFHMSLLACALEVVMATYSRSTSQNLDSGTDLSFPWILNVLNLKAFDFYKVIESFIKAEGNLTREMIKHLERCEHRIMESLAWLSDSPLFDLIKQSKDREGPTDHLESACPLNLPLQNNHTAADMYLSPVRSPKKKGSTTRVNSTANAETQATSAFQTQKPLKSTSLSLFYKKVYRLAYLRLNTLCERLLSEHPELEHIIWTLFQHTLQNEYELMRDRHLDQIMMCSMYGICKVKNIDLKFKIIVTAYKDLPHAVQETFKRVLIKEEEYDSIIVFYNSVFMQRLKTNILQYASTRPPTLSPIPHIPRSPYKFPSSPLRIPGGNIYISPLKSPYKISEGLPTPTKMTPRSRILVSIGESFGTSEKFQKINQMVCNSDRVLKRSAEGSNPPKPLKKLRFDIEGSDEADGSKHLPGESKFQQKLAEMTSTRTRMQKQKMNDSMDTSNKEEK

[2] = target: T1, p110^RB, the hypophosphorylated form of retinoblastoma protein (Rb); assay: GST pull-down, anti-Rb blot (FIG. 5 legend)
[3] = target: T1, p110^RB, the hypophosphorylated form of retinoblastoma protein (Rb); assay: GST pull-down on glutathione-agarose beads, blot probed with anti-Rb monoclonal antibody

Measured: binding

B1: GST-tagged Purα (Gst-Purα) (protein, UniProt Q00577 1-322, looked up, not shown: a dimerising Fc or GST)
chain: MADRDSGSEQGGAALGSGGSLGHPGSGSGSGGGGGGGGGGGGSGGGGGGAPGGLQHETQELASKRVDIQNKRFYLDVKQNAKGRFLKIAEVGAGGNKSRLTLSMSVAVEFRDYLGDFIEHYAQLGPSQPPDLAQAQDEPRRALKSEFLVRENRKYYMDLKENQRGRFLRIRQTVNRGPGLGSTQGQTIALPAQGLIEFRDALAKLIDDYGVEEEPAELPEGTSLTVDNKRFFFDVGSNKYGVFMRVSEVKPTYRNSITVPYKVWAKFGHTFCKYSEEMKKIQEKQREKRAACEQLHQQQQQQQEETAAATLLLQGEEEGEED
binds: all assays above
